Results are given in words; binding and its absence hold for the method and conditions named. Binding seen in cells or lysates may run through a third protein. A yes stands for co-enrichment or nearness to the bait. Other partners may have been found.
Target: BACH2 (BTB and CNC homology 1, basic leucine zipper transcription factor 2) (human (endogenous in MEC-1)) (UniProt Q9BYV9)
Assay: affinity purification with mass spectrometry; reciprocal co-immunoprecipitation with anti-BACH2 or anti-BCL6 from MEC-1 CLL cells, followed by Orbitrap mass spectrometry

Amino acid sequences for entries named in this document (tags omitted).
UniProt Q9BYV9: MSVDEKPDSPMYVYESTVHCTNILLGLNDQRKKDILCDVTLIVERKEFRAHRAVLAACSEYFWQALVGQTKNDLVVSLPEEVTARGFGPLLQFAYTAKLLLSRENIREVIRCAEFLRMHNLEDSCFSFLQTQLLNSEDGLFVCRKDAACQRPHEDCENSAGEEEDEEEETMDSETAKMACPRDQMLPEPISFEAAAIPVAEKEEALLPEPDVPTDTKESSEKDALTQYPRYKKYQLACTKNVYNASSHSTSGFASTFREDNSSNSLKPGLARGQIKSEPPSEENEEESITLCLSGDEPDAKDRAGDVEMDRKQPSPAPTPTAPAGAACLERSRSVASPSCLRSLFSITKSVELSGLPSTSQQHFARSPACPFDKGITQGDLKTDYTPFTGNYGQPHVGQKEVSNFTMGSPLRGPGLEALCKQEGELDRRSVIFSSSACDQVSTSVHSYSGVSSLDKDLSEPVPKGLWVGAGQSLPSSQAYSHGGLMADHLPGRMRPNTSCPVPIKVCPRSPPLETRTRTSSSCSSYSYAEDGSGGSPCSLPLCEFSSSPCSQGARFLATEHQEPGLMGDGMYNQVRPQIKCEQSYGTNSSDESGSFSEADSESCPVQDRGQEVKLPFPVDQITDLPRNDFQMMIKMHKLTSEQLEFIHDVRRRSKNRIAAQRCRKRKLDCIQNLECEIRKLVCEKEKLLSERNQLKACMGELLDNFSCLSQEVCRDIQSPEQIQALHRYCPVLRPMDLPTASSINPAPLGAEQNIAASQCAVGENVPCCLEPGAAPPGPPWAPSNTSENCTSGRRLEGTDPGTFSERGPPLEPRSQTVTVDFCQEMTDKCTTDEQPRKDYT

Binder | binding
USP48 (protein, UniProt Q86UV5 1-1035) MAPRLQLEKAAWRWAETVRPEEVSQEHIETAYRIWLEPCIRGVCRRNCKGNPNCLVGIGEHIWLGEIDENSFHNIDDPNCERRKKNSFVGLTNLGATCYVNTFLQVWFLNLELRQALYLCPSTCSDYMLGDGIQEEKDYEPQTICEHLQYLFALLQNSNRRYIDPSGFVKALGLDTGQQQDAQEFSKLFMSLLEDTLSKQKNPDVRNIVQQQFCGEYAYVTVCNQCGRESKLLSKFYELELNIQGHKQLTDCISEFLKEEKLEGDNRYFCENCQSKQNATRKIRLLSLPCTLNLQLMRFVFDRQTGHKKKLNTYIGFSEILDMEPYVEHKGGSYVYELSAVLIHRGVSAYSGHYIAHVKDPQSGEWYKFNDEDIEKMEGKKLQLGIEEDLAEPSKSQTRKPKCGKGTHCSRNAYMLVYRLQTQEKPNTTVQVPAFLQELVDRDNSKFEEWCIEMAEMRKQSVDKGKAKHEEVKELYQRLPAGAEPYEFVSLEWLQKWLDESTPTKPIDNHACLCSHDKLHPDKISIMKRISEYAADIFYSRYGGGPRLTVKALCKECVVERCRILRLKNQLNEDYKTVNNLLKAAVKGSDGFWVGKSSLRSWRQLALEQLDEQDGDAEQSNGKMNGSTLNKDESKEERKEEEELNFNEDILCPHGELCISENERRLVSKEAWSKLQQYFPKAPEFPSYKECCSQCKILEREGEENEALHKMIANEQKTSLPNLFQDKNRPCLSNWPEDTDVLYIVSQFFVEEWRKFVRKPTRCSPVSSVGNSALLCPHGGLMFTFASMTKEDSKLIALIWPSEWQMIQKLFVVDHVIKITRIEVGDVNPSETQYISEPKLCPECREGLLCQQQRDLREYTQATIYVHKVVDNKKVMKDSAPELNVSSSETEEDKEEAKPDGEKDPDFNQSNGGTKRQKISHQNYIAYQKQVIRRSMRHRKVRGEKALLVSANQTLKELKIQIMHAFSVAPFDQNLSIDGKILSDDCATLGTLGVIPESVILLKADEPIADYAAMDDVMQVCMPEEGFKGTGLLGH | binds
ARHGD1B (protein, UniProt P52566 1-201) MTEKAPEPHVEEDDDDELDSKLNYKPPPQKSLKELQEMDKDDESLIKYKKTLLGDGPVVTDPKAPNVVVTRLTLVCESAPGPITMDLTGDLEALKKETIVLKEGSEYRVKIHFKVNRDIVSGLKYVQHTYRTGVKVDKATFMVGSYGPRPEEYEFLTPVEEAPKGMLARGTYHNKSFFTDDDKQDHLSWEWNLSIKKEWTE | binds
TCOF1 (treacle ribosome biogenesis factor 1) (protein, UniProt Q13428 1-1488) MAEARKRRELLPLIYHHLLRAGYVRAAREVKEQSGQKCFLAQPVTLLDIYTHWQQTSELGRKRKAEEDAALQAKKTRVSDPISTSESSEEEEEAEAETAKATPRLASTNSSVLGADLPSSMKEKAKAETEKAGKTGNSMPHPATGKTVANLLSGKSPRKSAEPSANTTLVSETEEEGSVPAFGAAAKPGMVSAGQADSSSEDTSSSSDETDVEGKPSVKPAQVKASSVSTKESPARKAAPAPGKVGDVTPQVKGGALPPAKRAKKPEEESESSEEGSESEEEAPAGTRSQVKASEKILQVRAASAPAKGTPGKGATPAPPGKAGAVASQTKAGKPEEDSESSSEESSDSEEETPAAKALLQAKASGKTSQVGAASAPAKESPRKGAAPAPPGKTGPAVAKAQAGKREEDSQSSSEESDSEEEAPAQAKPSGKAPQVRAASAPAKESPRKGAAPAPPRKTGPAAAQVQVGKQEEDSRSSSEESDSDREALAAMNAAQVKPLGKSPQVKPASTMGMGPLGKGAGPVPPGKVGPATPSAQVGKWEEDSESSSEESSDSSDGEVPTAVAPAQEKSLGNILQAKPTSSPAKGPPQKAGPVAVQVKAEKPMDNSESSEESSDSADSEEAPAAMTAAQAKPALKIPQTKACPKKTNTTASAKVAPVRVGTQAPRKAGTATSPAGSSPAVAGGTQRPAEDSSSSEESDSEEEKTGLAVTVGQAKSVGKGLQVKAASVPVKGSLGQGTAPVLPGKTGPTVTQVKAEKQEDSESSEEESDSEEAAASPAQVKTSVKKTQAKANPAAARAPSAKGTISAPGKVVTAAAQAKQRSPSKVKPPVRNPQNSTVLARGPASVPSVGKAVATAAQAQTGPEEDSGSSEEESDSEEEAETLAQVKPSGKTHQIRAALAPAKESPRKGAAPTPPGKTGPSAAQAGKQDDSGSSSEESDSDGEAPAAVTSAQVIKPPLIFVDPNRSPAGPAATPAQAQAASTPRKARASESTARSSSSESEDEDVIPATQCLTPGIRTNVVTMPTAHPRIAPKASMAGASSSKESSRISDGKKQEGPATQVSKKNPASLPLTQAALKVLAQKASEAQPPVARTQPSSGVDSAVGTLPATSPQSTSVQAKGTNKLRKPKLPEVQQATKAPESSDDSEDSSDSSSGSEEDGEGPQGAKSAHTLGPTPSRTETLVEETAAESSEDDVVAPSQSLLSGYMTPGLTPANSQASKATPKLDSSPSVSSTLAAKDDPDGKQEAKPQQAAGMLSPKTGGKEAASGTTPQKSRKPKKGAGNPQASTLALQSNITQCLLGQPWPLNEAQVQASVVKVLTELLEQERKKVVDTTKESSRKGWESRKRKLSGDQPAARTPRSKKKKKLGAGEGGEASVSPEKTSTTSKGKAKRDKASGDVKEKKGKGSLGSQGAKDEPEEELQKGMGTVEGGDQSNPKSKKEKKKSDKRKKDKEKKEKKKKAKKASTKDSESPSQKKKKKKKKTAEQTV | binds
RETSAT (protein, UniProt Q6NUM9 19-610) KVYLGLFSGSSPNPFSEDVKRPPAPLVTDKEARKKVLKQAFSANQVPEKLDVVVIGSGFGGLAAAAILAKAGKRVLVLEQHTKAGGCCHTFGKNGLEFDTGIHYIGRMEEGSIGRFILDQITEGQLDWAPLSSPFDIMVLEGPNGRKEYPMYSGEKAYIQGLKEKFPQEEAIIDKYIKLVKVVSSGAPHAILLKFLPLPVVQLLDRCGLLTRFSPFLQASTQSLAEVLQQLGASSELQAVLSYIFPTYGVTPNHSAFSMHALLVNHYMKGGFYPRGGSSEIAFHTIPVIQRAGGAVLTKATVQSVLLDSAGKACGVSVKKGHELVNIYCPIVVSNAGLFNTYEHLLPGNARCLPGVKQQLGTVRPGLGMTSVFICLRGTKEDLHLPSTNYYVYYDTDMDQAMERYVSMPREEAAEHIPLLFFAFPSAKDPTWEDRFPGRSTMIMLIPTAYEWFEEWQAELKGKRGSDYETFKNSFVEASMSVVLKLFPQLEGKVESVTAGSPLTNQFYLAAPRGACYGADHDLGRLHPCVMASLRAQSPIPNLYLTGQDIFTCGLVGALQGALLCSSAILKRNLYSDLKNLDSRIRAQKKKN | binds
SFXN1 (protein, UniProt Q9H9B4 1-322) MSGELPPNINIKEPRWDQSTFIGRANHFFTVTDPRNILLTNEQLESARKIVHDYRQGIVPPGLTENELWRAKYIYDSAFHPDTGEKMILIGRMSAQVPMNMTITGCMMTFYRTTPAVLFWQWINQSFNAVVNYTNRSGDAPLTVNELGTAYVSATTGAVATALGLNALTKHVSPLIGRFVPFAAVAAANCINIPLMRQRELKVGIPVTDENGNRLGESANAAKQAITQVVVSRILMAAPGMAIPPFIMNTLEKKAFLKRFPWMSAPIQVGLVGFCLVFATPLCCALFPQKSSMSVTSLEAELQAKIQESHPELRRVYFNKGL | binds
SART3 (protein, UniProt Q15020 1-963) MATAAETSASEPEAESKAGPKADGEEDEVKAARTRRKVLSRAVAAATYKTMGPAWDQQEEGVSESDGDEYAMASSAESSPGEYEWEYDEEEEKNQLEIERLEEQLSINVYDYNCHVDLIRLLRLEGELTKVRMARQKMSEIFPLTEELWLEWLHDEISMAQDGLDREHVYDLFEKAVKDYICPNIWLEYGQYSVGGIGQKGGLEKVRSVFERALSSVGLHMTKGLALWEAYREFESAIVEAARLEKVHSLFRRQLAIPLYDMEATFAEYEEWSEDPIPESVIQNYNKALQQLEKYKPYEEALLQAEAPRLAEYQAYIDFEMKIGDPARIQLIFERALVENCLVPDLWIRYSQYLDRQLKVKDLVLSVHNRAIRNCPWTVALWSRYLLAMERHGVDHQVISVTFEKALNAGFIQATDYVEIWQAYLDYLRRRVDFKQDSSKELEELRAAFTRALEYLKQEVEERFNESGDPSCVIMQNWARIEARLCNNMQKARELWDSIMTRGNAKYANMWLEYYNLERAHGDTQHCRKALHRAVQCTSDYPEHVCEVLLTMERTEGSLEDWDIAVQKTETRLARVNEQRMKAAEKEAALVQQEEEKAEQRKRARAEKKALKKKKKIRGPEKRGADEDDEKEWGDDEEEQPSKRRRVENSIPAAGETQNVEVAAGPAGKCAAVDVEPPSKQKEKAASLKRDMPKVLHDSSKDSITVFVSNLPYSMQEPDTKLRPLFEACGEVVQIRPIFSNRGDFRGYCYVEFKEEKSALQALEMDRKSVEGRPMFVSPCVDKSKNPDFKVFRYSTSLEKHKLFISGLPFSCTKEELEEICKAHGTVKDLRLVTNRAGKPKGLAYVEYENESQASQAVMKMDGMTIKENIIKVAISNPPQRKVPEKPETRKAPGGPMLLPQTYGARGKGRTQLSLLPRALQRPSAAAPQAENGPAAAPAVAAPAATEAPKMSNADFAKLFLRK | binds
RRBP1 (protein, UniProt Q9P2E9 1-1410) MDIYDTQTLGVVVFGGFMVVSAIGIFLVSTFSMKETSYEEALANQRKEMAKTHHQKVEKKKKEKTVEKKGKTKKKEEKPNGKIPDHDPAPNVTVLLREPVRAPAVAVAPTPVQPPIIVAPVATVPAMPQEKLASSPKDKKKKEKKVAKVEPAVSSVVNSIQVLTSKAAILETAPKEVPMVVVPPVGAKGNTPATGTTQGKKAEGTQNQSKKAEGAPNQGRKAEGTPNQGKKTEGTPNQGKKAEGTPNQGKKAEGTPNQGKKAEGAQNQGKKVDTTPNQGKKVEGAPTQGRKAEGAQNQAKKVEGAQNQGKKAEGAQNQGKKGEGAQNQGKKAEGAQNQGKKAEGAQNQGKKAEGAQNQGKKAEGAQNQGKKAEGAQNQGKKAEGAQNQGKKVEGAQNQGKKAEGAQNQGKKAEGAQNQGKKAEGAQNQGKKAEGAQNQGKKAEGAQNQGKKAEGAQNQGKKAEGAQNQGKKVEGAQNQGKKAEGAQNQGKKAEGAQNQGKKAEGAQNQGQKGEGAQNQGKKTEGAQGKKAERSPNQGKKGEGAPIQGKKADSVANQGTKVEGITNQGKKAEGSPSEGKKAEGSPNQGKKADAAANQGKKTESASVQGRNTDVAQSPEAPKQEAPAKKKSGSKKKGEPGPPDADGPLYLPYKTLVSTVGSMVFNEGEAQRLIEILSEKAGIIQDTWHKATQKGDPVAILKRQLEEKEKLLATEQEDAAVAKSKLRELNKEMAAEKAKAAAGEAKVKKQLVAREQEITAVQARMQASYREHVKEVQQLQGKIRTLQEQLENGPNTQLARLQQENSILRDALNQATSQVESKQNAELAKLRQELSKVSKELVEKSEAVRQDEQQRKALEAKAAAFEKQVLQLQASHRESEEALQKRLDEVSRELCHTQSSHASLRADAEKAQEQQQQMAELHSKLQSSEAEVRSKCEELSGLHGQLQEARAENSQLTERIRSIEALLEAGQARDAQDVQASQAEADQQQTRLKELESQVSGLEKEAIELREAVEQQKVKNNDLREKNWKAMEALATAEQACKEKLLSLTQAKEESEKQLCLIEAQTMEALLALLPELSVLAQQNYTEWLQDLKEKGPTLLKHPPAPAEPSSDLASKLREAEETQSTLQAECDQYRSILAETEGMLRDLQKSVEEEEQVWRAKVGAAEEELQKSRVTVKHLEEIVEKLKGELESSDQVREHTSHLEAELEKHMAAASAECQNYAKEVAGLRQLLLESQSQLDAAKSEAQKQSDELALVRQQLSEMKSHVEDGDIAGAPASSPEAPPAEQDPVQLKTQLEWTEAILEDEQTQRQKLTAEFEEAQTSACRLQEELEKLRTAGPLESSETEEASQLKERLEKEKKLTSDLGRAATRLQELLKTTQEQLAREKDTVKKLQEQLEKAEDGSSSKEGTSV | binds

From paper PMC8750551
